Measured values published in paper PMC3230590, “Structure of the Bro1 Domain Protein BROX and Functional Analyses of the ALIX Bro1 Domain in HIV-1 Budding” (PLoS ONE, 2011).
These are yes or no findings as the source states them, for the method shown.

Biological target: T1, human BROX(1-401) (human, UniProt Q5VW32 1-401)
T1 construct: BROX, human, residues 1-401; lacks the 10 C-terminal residues 402-411 with the farnesylated Cys408; Residues of the vector may remain after TEV cleavage (surmise); also called wild type BROX; recombinant human BROX; not shown: His6, N-terminal, cleaved
T1 sequence (looked up): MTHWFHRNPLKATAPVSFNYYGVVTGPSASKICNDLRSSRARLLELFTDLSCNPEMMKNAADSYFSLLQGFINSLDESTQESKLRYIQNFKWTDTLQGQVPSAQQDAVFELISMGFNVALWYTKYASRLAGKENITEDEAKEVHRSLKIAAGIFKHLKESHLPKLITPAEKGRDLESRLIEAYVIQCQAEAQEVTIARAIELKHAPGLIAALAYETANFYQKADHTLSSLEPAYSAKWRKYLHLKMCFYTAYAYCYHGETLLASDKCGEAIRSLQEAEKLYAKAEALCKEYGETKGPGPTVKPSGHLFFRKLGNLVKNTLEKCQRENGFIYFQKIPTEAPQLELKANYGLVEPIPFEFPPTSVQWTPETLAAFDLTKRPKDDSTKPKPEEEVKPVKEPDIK
Test: SEC; gel filtration of purified BROX(1-401), Superdex 75, 10 mM Tris pH 8.0, 100 mM NaCl, 1 mM DTT; 47 kDa protein eluted as a single species of apparent 57 kDa; both purified

B1: human BROX(1-401) (protein, UniProt Q5VW32 1-401)
chain: MTHWFHRNPLKATAPVSFNYYGVVTGPSASKICNDLRSSRARLLELFTDLSCNPEMMKNAADSYFSLLQGFINSLDESTQESKLRYIQNFKWTDTLQGQVPSAQQDAVFELISMGFNVALWYTKYASRLAGKENITEDEAKEVHRSLKIAAGIFKHLKESHLPKLITPAEKGRDLESRLIEAYVIQCQAEAQEVTIARAIELKHAPGLIAALAYETANFYQKADHTLSSLEPAYSAKWRKYLHLKMCFYTAYAYCYHGETLLASDKCGEAIRSLQEAEKLYAKAEALCKEYGETKGPGPTVKPSGHLFFRKLGNLVKNTLEKCQRENGFIYFQKIPTEAPQLELKANYGLVEPIPFEFPPTSVQWTPETLAAFDLTKRPKDDSTKPKPEEEVKPVKEPDIK
binding: no binding
